# Measured values as given in PubChem BioAssay AID493014 (National Center for Advancing Translational Sciences (NCATS), 2011).
# Some of the results follow. The main result of the screen is listed elsewhere. These columns were measured beside it and carry no call. Compounds called inactive in the main read-out are mostly missing here. The note in brackets gives the kind of curve behind each potency; many fits are weak.
# Experiment: qHTS Assay to Find Inhibitors of Chronic Active B-Cell Receptor Signaling
# Conditions: ABC-DLBCL IkBa-CBG/CBR reporter, luminescence ratio (green luciferase fused to IkBa over red control in TMD8 lymphoma cells), 4 h
# Outline: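 Cell line TMD8 (human ABC DLBCL), stably expressing tet-inducible CBG68-IkBa fusion and CBR; IMDM/0.5% FBS; cpd up to 46 uM; dox induction, 4 h, 37C/5% CO2; dual luminescence; green/red ratio; MG132 control.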
# [1] = measured here: CBR red luminescence, cell number
# [2] = measured here: IkBa-CBG green luminescence
SMILES,AC50 [1],AC50 [2]
CCOC(=O)c1c(O)cc(OC)cc1CCc1ccccc1,"29.1 µM [rising, single point]",–
CCC(=O)Nc1ccc2c(c1)nc(CCN1CCN(c3ccccc3)CC1)n2C,"0.1 µM [falling, full curve, poor fit]",–
Cn1c(C(=O)NCC2CCCO2)cc2c(=O)[nH]c3ccccc3c21 (stereo unspecified),"23.1 µM [rising, single point]",–
Cc1cc(-c2ccccc2)nnc1NCCN1CCOCC1,"1.46 µM [rising, full curve, poor fit]",–
C=CCC[C@@H](Cc1ccc(F)cc1)C(=O)OC[C@@H](Cc1ccccc1)NC(=O)[C@H](CC=C)CC(=O)NCCO,"25.9 µM [falling, single point]",–
CCn1c(Cc2ccccc2)nnc1SCC(=O)c1c(N)n(C2CC2)c(=O)[nH]c1=O,"23.1 µM [rising, single point]",–
O=C(CC12CC3CC(CC(C3)C1)C2)Nc1nncs1,"17.8 µM [falling, partial curve, poor fit]",–
CCOC(=O)C1=CN(Cc2ccco2)S(=O)(=O)N(CC)C1c1ccccc1 (stereo unspecified),"29.1 µM [falling, single point]",–
Cc1cc(C(=O)COC(=O)c2ccc(Br)o2)c(C)n1C,"3.98 µM [rising, single point]",–
C=C(C)COc1ccc(-c2[nH]ncc2Oc2ccccc2OCC)c(O)c1,"35.5 µM [falling, single point]",–
O=C(Nc1cccc(Cl)c1)Nc1cccc(Cl)c1,"0.326 µM [rising, full curve, poor fit]",–
Cc1cc(C)cc(NC(=O)c2ccc3nc[nH]c3c2)c1,"0.291 µM [falling, partial curve, poor fit]",–
C/C(=N\N=C1\NC(=O)C(CC(=O)Nc2ccc(C)c(Cl)c2)S1)C(C)(C)C (stereo unspecified),"7.94 µM [falling, partial curve, poor fit]",–
COC(=O)C(Cc1ccc(O)cc1)NC(=O)c1ccccc1 (stereo unspecified),"0.231 µM [rising, full curve, poor fit]",–
OCCN(Cc1nc(-c2ccc3c(c2)OCO3)no1)Cc1cccs1,"11.2 µM [rising, partial curve, poor fit]",–
Cc1ccc(N2CC(O)Cn3c2nc2c3c(=O)n(C)c(=O)n2C)cc1 (stereo unspecified),"15.8 µM [rising, partial curve, poor fit]",–
COc1ccc(C(=O)CSc2cc(C)nc3nc(C)nn23)cc1OC,"5.17 µM [rising, single point]",–
CCOc1ccc2[nH]c(=O)c(CN(CCO)C(=O)CC)cc2c1,"6.51 µM [falling, single point]",–
COc1ccccc1Cn1c(=O)[nH]c2cccnc21,"6.51 µM [rising, full curve, poor fit]",–
CN(NC(=O)c1ccccc1F)c1nc(C(F)(F)F)nc2ccccc12,"20 µM [rising, single point]","12.6 µM [falling, single point]"
O=c1c(-c2ccccc2Cl)c[nH]n1-c1ccccc1,"14.1 µM [falling, single point]",–
CCCN(CCC)C(=O)COc1cc(=O)n(CC)c2ccccc12,"29.1 µM [rising, single point]",–

SMILES,AC50 [1],AC50 [2]
Cc1cccn2cc(CSc3ccccc3N)nc12,"4.61 µM [falling, partial curve, poor fit]",–
Cc1ccc2[nH]c(=O)c(CN(Cc3ccccc3)C(=S)NCCCN(C)C)cc2c1,"0.501 µM [falling, full curve]",–
Cc1cccc(C)c1OCCCCn1cnc2ccccc2c1=O,"8.91 µM [falling, single point]",–
O=C(NCCCN1CCOCC1)c1sc2ccccc2c1Cl,"8.91 µM [rising, partial curve, poor fit]",–
N#C/C(=C/c1ccc2c(c1)OCO2)C(=O)Nc1ccc(O)cc1,"15.8 µM [falling, partial curve, poor fit]",–
COc1ccccc1OCCC(=O)OCC(=O)Nc1ccc(S(=O)(=O)N2CCOCC2)cc1,"20 µM [falling, single point]",–
CNc1nc(Cl)c(SC)c(N2CCOCC2)n1,"12.6 µM [falling, single point]",–
CC(=O)c1cccc(NC(=O)CN2CCN(Cc3ccccc3)CC2)c1,"12.6 µM [rising, partial curve, poor fit]",–
O=C(Nc1nc2c(s1)CN(Cc1ccccc1)CC2)C1CCCC1,"3.55 µM [rising, partial curve, poor fit]",–
Cc1ccc(S(=O)(=O)NNC(=O)c2snnc2C)cc1,"1.3 µM [falling, full curve, poor fit]",–
O=C(Nc1ccc(F)cc1F)N1CCN(c2ncccn2)CC1,"7.31 µM [falling, partial curve]",–
CN(C)C(=O)CCc1nc(-c2ccc(C(C)(C)C)cc2)no1,"25.1 µM [falling, single point]",–
COc1ccc(Cl)cc1NC(=O)C/C(C)=N/NC(=O)c1ccccc1Cl,"12.6 µM [falling, partial curve]",–
C=CCN(c1ccccc1)S(=O)(=O)c1cc(C(=O)NC2=NCCS2)ccc1Cl,"14.1 µM [falling, single point]",–
CC(=O)Nc1cccc(C(=O)OC(C(=O)c2ccc(C)cc2)c2ccccc2)c1 (stereo unspecified),"31.6 µM [rising, single point]",–
O=C(CNC(=O)c1ccco1)N/N=C/c1ccc(O)c([N+](=O)[O-])c1,"5.17 µM [falling, partial curve, poor fit]",–
CN(C)CCCN(C(=O)c1ccc2c(c1)OCCO2)c1nc2cc3c(cc2s1)OCO3,"22.4 µM [falling, single point]",–
O=C(c1ccc2[nH]c(=O)c(=O)[nH]c2c1)N1CCc2ccccc21,"3.55 µM [rising, single point]",–
COC(=O)c1ccccc1NC(=O)NCCc1ccccc1OC,"10 µM [falling, partial curve]",–
O=C(CCN1C(=O)c2ccccc2C1=O)NC(=S)Nc1cccc(Cl)c1,"35.5 µM [falling, single point]",–
S=C(NCCc1ccccc1)NCc1cccs1,"29.1 µM [falling, single point]",–
CN1CCN(c2ccc(NC(=O)c3ccc(-c4ccc(Br)cc4)o3)cc2)CC1,"22.4 µM [falling, single point]",–

SMILES,AC50 [1],AC50 [2]
COC(=O)N1C(=O)[C@](c2ccccc2)(C(C)C)N1C(=O)OC,"12.6 µM [falling, partial curve, poor fit]",–
O=C(COC(=O)/C=C/c1ccc(F)cc1)Nc1cc(C(F)(F)F)ccc1N1CCOCC1,"3.26 µM [rising, full curve, poor fit]",–
CC(=O)Nc1ccc(/C=C/c2ccc3cccc([N+](=O)[O-])c3n2)cc1,"5.01 µM [rising, full curve, poor fit]",–
CCC(=O)NC(c1ccc(C)cc1)c1ccc2cccnc2c1O (stereo unspecified),"7.08 µM [falling, partial curve]",–
Cc1ccc(C(=O)NC(NCc2ccccc2)C(Cl)(Cl)Cl)cc1 (stereo unspecified),"7.31 µM [rising, partial curve, poor fit]",–
CCCCOc1ccc(S(=O)(=O)N2CCN(c3ccc(N4CCN(CC)CC4)nn3)CC2)cc1,"18.4 µM [rising, partial curve, poor fit]",–
Cc1cc(/C(N)=N/OC(=O)c2ccccc2Cl)no1,"35.5 µM [falling, single point]",–
CSc1cccc(NC(=S)N(Cc2ccc(C)cc2)Cc2cccnc2)c1,"11.2 µM [rising, partial curve, poor fit]",–
COc1cc(OC)cc(C(=O)NC(C(=O)NNC(=O)c2ccc(C)cc2)C(C)C)c1 (stereo unspecified),"23.1 µM [rising, single point]",–
Cc1ccc(S(=O)(=O)N(C)CCCC(=O)NCc2ccc3c(c2)OCO3)cc1,"16.4 µM [falling, partial curve, poor fit]",–
C#Cc1ccc([C@H]2C=C(C(=O)O)O[C@@H](OCc3ccc(CO)cc3)C2)cc1,"2.51 µM [rising, partial curve, poor fit]",–
Cc1cc(N)nc2nc(C(F)(F)F)nn12,"1.58 µM [falling, full curve, poor fit]",–
Cc1nn2c(-c3ccc(Cl)cc3)ccnc2c1-c1ccccc1,"6.51 µM [falling, single point]",–
Cc1ccccc1C(=O)Nc1ccc(Br)c(C)n1,"9.2 µM [falling, partial curve]",–
CCN(CC)S(=O)(=O)c1ccc2c(c1)N(CC(=O)NCCCN1CCN(c3ccc(OC)cc3)CC1)C(=O)CO2,"35.5 µM [rising, single point]",–
Oc1oc(-c2ccccc2)nc1C=Nc1cccc2ccccc12,"29.1 µM [falling, single point]",–
CCCCCn1c(=O)[nH]c2cc(C(=O)NCCN(CC)CC)ccc2c1=O,"35.5 µM [falling, single point]",–
O=C(c1ccco1)N1CCN(c2nc(C3CC3)nc3sc4c(c23)CCCC4)CC1,"15.8 µM [falling, partial curve, poor fit]","17.8 µM [rising, partial curve, poor fit]"
O=C(CSc1nc2ccccc2s1)Nc1cc(S(=O)(=O)N2CCOCC2)ccc1Cl,"0.92 µM [rising, full curve, poor fit]",–
O=C1N/C(=N\N=C\c2cccs2)SC1Cc1ccc(Cl)c(Cl)c1 (stereo unspecified),"4.47 µM [falling, partial curve]",–
